We go through three molecules from article PMC10842940, “Establishment of dsDNA-dsDNA interactions by the condensin complex” (Molecular cell, 2023).

Results are given in words; binding and its absence hold for the method and conditions named. Some results given as binding are weak or reduced against the parent protein; the word gives no strength.

To fix the notation:
T1: Cnd2^Brn1 (fission yeast condensin kleisin subunit) (S. pombe) (UniProt Q9Y7R3)
T1 sequence: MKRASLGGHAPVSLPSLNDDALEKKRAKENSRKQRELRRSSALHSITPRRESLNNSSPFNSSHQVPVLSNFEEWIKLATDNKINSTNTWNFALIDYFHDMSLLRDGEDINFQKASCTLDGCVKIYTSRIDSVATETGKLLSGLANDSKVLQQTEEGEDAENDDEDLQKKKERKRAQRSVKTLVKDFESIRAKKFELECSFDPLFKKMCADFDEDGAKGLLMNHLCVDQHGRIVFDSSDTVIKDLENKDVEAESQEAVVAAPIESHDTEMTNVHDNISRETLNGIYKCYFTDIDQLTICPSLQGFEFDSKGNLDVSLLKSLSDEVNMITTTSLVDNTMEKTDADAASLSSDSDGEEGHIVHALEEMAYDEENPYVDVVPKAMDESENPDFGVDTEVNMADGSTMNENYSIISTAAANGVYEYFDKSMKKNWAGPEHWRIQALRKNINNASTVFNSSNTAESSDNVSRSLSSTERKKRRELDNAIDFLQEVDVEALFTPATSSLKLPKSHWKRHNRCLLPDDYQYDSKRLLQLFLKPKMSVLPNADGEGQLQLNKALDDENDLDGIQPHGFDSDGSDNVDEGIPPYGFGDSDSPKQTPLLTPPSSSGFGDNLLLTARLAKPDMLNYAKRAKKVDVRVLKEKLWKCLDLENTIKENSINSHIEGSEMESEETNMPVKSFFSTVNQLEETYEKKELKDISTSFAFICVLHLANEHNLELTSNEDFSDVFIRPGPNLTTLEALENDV

B1: Cut3^Smc4 (fission yeast condensin SMC subunit) (protein, UniProt P41004 1-1324)
chain: MSDKGIFRTSSTPSIVDVTPDRGERPRKLVRSVLESPSQKDVASIVKIEQTPSRPFFNDFLKKRITDSLNERPNLLNKFMSAQDGTPSKSTGFNERSSQLVSEFTTTEDIENCEETTQVLPPRLVVYELRLTNFKSYAGTQIVGPFHPSFSSIVGPNGSGKSNVIDALLFVFGFRASKLRQSKASALIHKSATHPSLDSCDVEITFKEVNSDFTYVDGSELTVRRTAYKNNTSKYFVNGVESSFSAVSNLLKEKGIDLNHKRFLILQGEVESIAQMKPRAISEGDDGLLEYLEDIIGTSKYKPIIEENMQELSNSDDICAEKESRLKLVLSEKAKLEDSKNSVLSFLKDENELFMKQNQLYRTILYETRNKKTLVQNLLNSLEGKLQAHLEKFEQTERDISEKNEEVKSLREKAAKVKNDCTSEKKTRQSYEQQTVKIEEQLKFLLNKEKKLKKSIEALSFEKSEAENSLSSHDIDSQKLNSEIADLSLRLQQEELSLDDIRKSLQGKTEGISNAIEEKQKAMAPALEKINQLTSEKQILQVELDMLLNKENDLINDVESSQSSLDKLRNDAEENRNILSSKLKVLSDLKGEKKDVSKNIERKKETVHNTYRNLMSNRTKLEEMKASLSSSRSRGNVLESLQRLHESDNLNGFFGRLGDLATIDEAYDVAISTACPALNHIVVDNIETGQKCVAFLRSNNLGRASFIILKELAQKNLARIQTPENVPRLFDLLRFNDQKFAPAFYNVLQNTLVAKNLEQANRIAYGKTRWRVVTLSGQLIDKSGTMTGGGTRVKKGGMSSAITSDVSPASVETCDKQVQLEDTRYRQHLSELESLNQRFTEISERIPSAELEISKLQLDVSACDRLVAGEERRILQLKSDLKSIRNNNERKRNLQNKISNMDKEVEAININNEGLVTEIKTLQDKIMEIGGIRYRIQKSKVDDLHEQLKFVKDKLNKMSFKKKKNEQRSQSFQVELSNLTSEYDTTTESIATLKTELQSLNKYVDEHKSRLREFENALWDINSSIDELVKFIEFESKQMNSVKAERIELENQIQEQRTALSEVGNNENKYLKLMSNLKLHNLTEFCDQTTMDSTFPEYSEDELSSVDKSELVSNISVLKKKTEDREVDINVLSEYRRCNKEAEKRDSDYQSELQKRTDLKKVVTDLQSQRLDEFMYGFGIISMKLKEMYQIITMGGNAELELVDSLDPFSEGVLFSVMPPKKSWKNISNLSGGEKTLSSLALVFALHNYKPTPLYVMDEIDAALDFKNVSIVANYIKERTKNAQFIVISLRSNMFELSSRLVGIYKTANMTKSVTINNKEILTD
B2: Cnd3^Ycg1 (fission yeast condensin HEAT-repeat subunit) (natural protein, S. pombe, UniProt Q10429 1-875, looked up)
chain: MSCIQIISSSQTSIAGHRKLCNKLFTLRTQEGFETDILRALNIILTVKKGNSNADRVLRFLVTFVNYLQQKDPEIDIVQPILKHILRGLDAKDKTVRYRCCQIIARVVNCVKEIDDDLYNTLKEKLLSRVLDRESIVRLEAVVALSRLQEDTGDEENDVRNILLFLLQNDPSSEVRRSVLLNIEVSNSTLPFILERARDVDAANRKCVYARVLPKIGDFRYLSIKKRVRILKWGLNDRDESVEKAAADMLAYQWIENADNNLLELLERLDVSNNSDVAVLAIKKFFDVRVDSLSQLEFPEQFWLELTAESSLLARTFNEICIEKNYTDLLDKMPEVVQLTYYIERQYVSLRDKSSYDESCFIIEQLLYIGLSQDMVDEIGRRKLLKSLTNSLSTMALPDSLISLHIELLRKLCSSENDFCSLLVEIITEVFEQGHSQNQTEEQGNSNAPELNKNDYEGEEITVSQKSPSPSLPPNELNEPEPDDMDGYKEAFNELRCLSYVQCLFENITSSLNENLYMVDMLKTLIIPAVRSHDLPIREKGLECLSLVCLLNADLAFENVPLYLHCYEKGSVVLKCTAIRTLTDMLIQHGKAKFTEYEDAISSILFEALGEFENAELQTLGAEAIAKLLVILHYRDELFLKPLIIQYFEPNTVDNHALRQVLGYFFPVYAFGAHENQWRIATIFCDALLSLLEIYRDLDEDDVQLSIGHIAQQMLDWTDNEKLYERKTQTGDDYIALNHNVHLHLANMIFESLPNASEGKERKFMISLLGKLKIPTDLPSSDYQRTKRKLETYESHGFTMDSTSLSILAKFERMLLQNEEARSKFEETEEERLMENAEENEHAGAEAISGEIIPDTVEANMEDEEEVYVKQEEDL
notes: Cnd3 (Ycg1), S. pombe condensin HEAT-repeat subunit; cDNA cloned into an S. cerevisiae expression vector; also called Cnd3^CAP-G; source: S. cerevisiae (w303, pep4 deleted), co-overexpressed with the other four condensin subunits from GAL1-10 promoters; in cell extract, and purified as the complex (IgG-agarose, 3C protease elution, heparin, Superose 6)
B3: Cut14^Smc2 (fission yeast condensin SMC subunit) (protein, UniProt P41003 1-1172)
chain: MKIEELIIDGFKSYAVRTVISNWDDQFNAITGLNGSGKSNILDAICFVLGITNMSTVRAQNLQDLIYKRGQAGITRASVTIVFNNRDPASSPIGFENHPQVSVTRQIIMGGTSKYLINGHRALQQNVQNLFQSVQLNINNPNFLIMQGRITKVLNMKATEILSMIEEASGTRMFEERKEKAFRTMQRKEAKVEEINTLLREEIEPRLTKLRTEKKTFLEYQHIYNDLERLSHLCTAYDYYKLSLKVEELTVQASQKHSHIAEMESSLQTSKQEVLILKEKIKKIEDERMRQMSVSSDRTLDSQLQTVNENITRISTSIELKNTALEEEHGDLQQIRGKAKELETLLRGKRKRLDEVLSVYEKRKDEHQSISKDFKSQEELISSLTTGLSTTEGHETGYSRKLHEARDTLNDFKAEKETNRLKLEGLNKQISLTKPKKAEATKRCDQLNREIDILQNHVEKLKMSLKNTNSDITGEDVLQQKLKQLAKDRGNLLNELDALKSKLAYMEFTYTDPTPNFDRSKVKGLVAQLLTLNEENYDKQTALEITAGGRLYNLIVETEKIGAQLLQKGNLKRRVTIIPLNKITSFVASAERVGAAKKISNNKAQLALELIGYDDELLPAMQYVFGSTLVCDTPESAKKVTFHPSVKLKSVTLDGDVYDPSGTLTGGSVNKSAGPLLQIQKLNSLQLKLQVVTSEYEKLETQLKDLKTQNANFHRLEQEIQLKQHELTLLIEQRETDSSFRLLSDYQQYKDDVKDLKQRLPELDRLILQSDQAIKKIERDMQEWKHNKGSKMAELEKEFNQYKHKLDEFTPILEKSENDYNGVKLECEQLEGELQNHQQSLVQGESTTSLIKTEIAELELSLVNEEHNRKKLTELIEIESAKFSGLNKEIDSLSTSMKTFESEINNGELTIQKLNHEFDRLEREKSVAITAINHLEKENDWIDGQKQHFGKQGTIFDFHSQNMRQCREQLHNLKPRFASMRKAINPKVMDMIDGVEKKEAKLRSMIKTIHRDKKKIQDTVKSIDRFKRSALEKTWREVNSSFGEIFDELLPGNSAELQPPENKEFTDGLEIHVKIGSIWKDSLAELSGGQRSLVALALIMSLLKYKPAPMYILDEIDAALDLSHTQNIGRLIKTKFKGSQFIIVSLKEGMFTNANRLFHVRFMDGSSVVQAR

The assay deals with T1, Cnd2^Brn1 (fission yeast condensin kleisin subunit) (S. pombe). The assay is described as follows: co-purification (IgG-agarose affinity, heparin, gel filtration); five subunits co-overexpressed in S. cerevisiae; extract bound to rabbit IgG-agarose through Cnd2-2xProtA, washed at 300 mM NaCl, eluted with 3C protease, then heparin column and Superose 6; 4°C. (In general: Size exclusion chromatography separates by hydrodynamic size, large species first.)
B1: the binding result was “binds”.

With B2, the binding entry is given as “binds”.

As for B3, the binding result is “binds”.
